From article PMC9181523 come the findings set out here.

In the data set the target is T1, SrsR (YgfI) (Escherichia coli K-12 W3110 type-A) (UniProt P52044).
T1 sequence (looked up, limits assumed): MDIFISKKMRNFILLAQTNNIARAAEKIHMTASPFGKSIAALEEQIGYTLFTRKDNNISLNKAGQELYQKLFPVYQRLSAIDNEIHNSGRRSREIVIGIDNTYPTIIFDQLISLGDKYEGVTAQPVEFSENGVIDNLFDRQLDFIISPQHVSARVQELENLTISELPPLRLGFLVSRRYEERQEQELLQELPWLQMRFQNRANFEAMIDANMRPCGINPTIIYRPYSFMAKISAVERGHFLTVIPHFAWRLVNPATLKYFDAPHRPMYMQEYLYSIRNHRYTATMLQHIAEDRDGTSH
The experiment in a line: EMSA. The settings on record: several complexes; EMSA: gel shift buffer (composition not given), 0.1 pmol probe, 0-2 pmol SrsR, 37 C 30 min; recombinant protein; protein details: C-terminal His; probe letters rebuilt from the primers and the genome.

The exact form of at least one protein or probe is not confirmed. Tags and fusion partners may be left off the protein sequences shown.

For the sequence “ATCATCCTGCGTTCCCCACTGGCGCTTTTTAGGGCTGAATACAACCGCATCAGGATGGCGAGTTAAAAAATCCTGTTCATCCGTCTGCGTGTCCGGTTGCGAAGCGTCCGGACGAGAAGGTTTTTTATCTGACGGATCATGTTTTGATTTTACTGACGGATCCCCGCCAGATTCTGACGGGTGAAAACCCGATTTTTTGCCAGATTTCGACGCATCAAATTTTGACGGGTCAGATTTTGATGCGTCAGATTTTGACGGGTCAGAGTCTGACAGTTGAGAAAATGCCGCTGCCTGAAGCTTCGCAACGTTAAGCTGATAAACATTCGACGCATTGCGGTT (double strand) [yfdO/yfdP gel shift probe]”, the binding result is “binds”.
